According to publication PMC8375240:
Results are given in words; binding and its absence hold for the method and conditions named. In cells and extracts the contact can be indirect. Some results given as binding are weak or reduced against the parent protein; the word gives no strength.

Chains of the proteins cited; added tags and fusions are not shown. Lines headed by an entry give the natural chain unless they say otherwise; changes in a name come on top.
UniProt O15231: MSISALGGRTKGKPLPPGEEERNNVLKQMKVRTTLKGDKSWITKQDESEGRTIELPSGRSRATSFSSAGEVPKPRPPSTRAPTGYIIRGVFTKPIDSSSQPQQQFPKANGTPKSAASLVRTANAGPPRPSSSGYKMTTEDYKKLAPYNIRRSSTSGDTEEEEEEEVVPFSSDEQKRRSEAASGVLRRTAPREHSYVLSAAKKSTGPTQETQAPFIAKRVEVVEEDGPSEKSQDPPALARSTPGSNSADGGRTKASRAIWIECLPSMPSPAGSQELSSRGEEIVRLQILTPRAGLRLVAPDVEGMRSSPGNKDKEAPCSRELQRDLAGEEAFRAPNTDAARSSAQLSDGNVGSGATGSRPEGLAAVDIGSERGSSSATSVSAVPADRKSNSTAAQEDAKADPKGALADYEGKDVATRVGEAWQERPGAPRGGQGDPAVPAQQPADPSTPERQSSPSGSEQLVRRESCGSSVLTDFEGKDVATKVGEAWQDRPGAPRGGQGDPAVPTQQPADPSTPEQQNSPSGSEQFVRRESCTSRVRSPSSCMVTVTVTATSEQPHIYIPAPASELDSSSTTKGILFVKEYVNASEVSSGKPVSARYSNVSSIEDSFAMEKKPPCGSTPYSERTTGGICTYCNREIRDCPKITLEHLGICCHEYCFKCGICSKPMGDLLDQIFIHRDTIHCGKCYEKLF
UniProt Q05086: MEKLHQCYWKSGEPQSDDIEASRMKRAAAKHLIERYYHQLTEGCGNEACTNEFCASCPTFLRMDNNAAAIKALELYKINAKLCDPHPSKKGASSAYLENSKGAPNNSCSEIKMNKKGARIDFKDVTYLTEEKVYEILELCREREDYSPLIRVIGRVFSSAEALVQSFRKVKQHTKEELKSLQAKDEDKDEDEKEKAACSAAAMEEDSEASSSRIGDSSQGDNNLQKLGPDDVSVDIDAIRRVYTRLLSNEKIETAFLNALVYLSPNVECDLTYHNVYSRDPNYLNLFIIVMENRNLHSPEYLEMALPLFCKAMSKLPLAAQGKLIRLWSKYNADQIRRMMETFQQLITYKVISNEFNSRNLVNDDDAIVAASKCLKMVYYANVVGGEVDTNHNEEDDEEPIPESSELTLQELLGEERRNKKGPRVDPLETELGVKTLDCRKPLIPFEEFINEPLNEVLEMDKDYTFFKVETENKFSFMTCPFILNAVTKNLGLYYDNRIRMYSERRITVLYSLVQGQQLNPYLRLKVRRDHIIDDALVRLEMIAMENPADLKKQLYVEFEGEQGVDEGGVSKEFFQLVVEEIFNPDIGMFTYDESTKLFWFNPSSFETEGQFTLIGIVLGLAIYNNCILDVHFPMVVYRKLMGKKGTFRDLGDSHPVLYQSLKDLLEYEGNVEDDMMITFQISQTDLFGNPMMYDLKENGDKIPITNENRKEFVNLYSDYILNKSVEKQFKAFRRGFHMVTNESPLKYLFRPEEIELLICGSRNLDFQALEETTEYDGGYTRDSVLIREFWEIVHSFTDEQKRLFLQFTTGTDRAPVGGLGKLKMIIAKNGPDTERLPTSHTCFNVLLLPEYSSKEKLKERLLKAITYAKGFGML

Assays:
[1] = target: Zinc finger protein 185 (human (endogenous in Eca-109 and TE-1)) (UniProt O15231); experiment: co-IP; whole-cell lysate (RIPA buffer) of Eca-109 and TE-1 cells, nondenaturing condition, immunoprecipitated with anti-UBE3A or anti-ZNF185 and Protein G agarose, IgG as control; Western blot
[2] = target: Ubiquitin-protein ligase E3A (human (endogenous in Eca-109 and TE-1)) (UniProt Q05086); experiment: as above
[3] = target: Ubiquitin-protein ligase E3A (human (endogenous in Eca-109 and TE-1)) (UniProt Q05086); experiment: proximity ligation; Duolink in situ fluorescence on fixed Eca-109 cells with UBE3A and ZNF185 primary antibodies, confocal microscopy

Row | binding [1] | binding [2] | binding [3] | Substance
1 | binds | – | – | Ubiquitin-protein ligase E3A (from UniProt Q05086 1-875) (enzyme)
2 | – | binds | binds | Zinc finger protein 185 (from UniProt O15231 1-689)
